At least one compound was matched to its structure with a doubt left.
Tested on: airway smooth muscle (ASM) in tracheal rings from OVA sensitized/challenged mice
Assay: Inhibition of acetylcholine-induced ASM contraction in tracheal rings (ex vivo myography, 30 min pretreatment)
Set-up: species or system BALB/c mice
Settings: 10 μM acute pretreatment; FIG. 6D; listed as dexamethasone
Method: To determine which herbal constituents in ASHMI™ have a direct inhibitory effect on ASM contraction, an asthmatic mouse model was induced by ovalbumin (OVA) sensitization and challenge as described previously (Zhang et al., 2010). Tracheal rings from asthmatic mice were treated with an aq. extract of ASHMI™ (100 μg/ml), or individual herb aq. extracts, G. lucidum (35 μg/ml), S. flavescens (45 μg/ml) and G. uralenisis (20 μg/ml), for 30 min prior to ex vivo acetylcholine provocation. The ASHMI™ concentration was based on our previous publication (Zhang et al., 2010). Concentrations of individual herb extracts were equivalent to their individual concentrations in ASHMI™.
Balb/c mice were sensitized by intraperitoneal (i.p.) injection of 200 μg OVA plus 2 mg of aluminum hydroxide (alum) in 400 μl of PBS on days 0 and 7. Mice were challenged intratracheally (i.t.) with 100 μg of OVA in 50 μl of PBS weekly for 2 weeks (days 14 and 21). Mice were challenged i.t. once daily with 100 μg of OVA (50 μl) on 2 consecutive days (days 28 and 29) 48 hr before sacrifice and tissue harvesting.
Forty-eight hrs after the last i.t. OVA challenge, mice were sacrificed and tracheas were excised and cut into 3 tracheal rings as previously described. […]

C[C@@H]1C[C@H]2[C@@H]3CCC4=CC(=O)C=C[C@]4(C)[C@@]3(F)[C@@H](O)C[C@]2(C)[C@@]1(O)C(=O)CO [Dexamethasone, dexamethasone, reference compound]
acetylcholine-induced ASM contractions: did not affect acetylcholine-induced contractions

Reference: US10406191B2, “Compounds, extracts and methods from chinese medicinal herb sophora flavescens that inhibit airway contraction” (priority 2013, dated 2019)
